For the assay, the target named is biotinylated IgE Fc (UniProt P01854). The description is as described for the monomers (ELISA). (ELISA stands for enzyme-linked immunosorbent assay.)

Protein sequences, listed by entry. Tags and fused reporters are not part of them. Lines headed by an entry give the natural chain unless they say otherwise; changes in a name come on top. Chains listed by the source or under a name are the forms on record and can include a tag or linker.
biotinylated IgE Fc (P01854, form named): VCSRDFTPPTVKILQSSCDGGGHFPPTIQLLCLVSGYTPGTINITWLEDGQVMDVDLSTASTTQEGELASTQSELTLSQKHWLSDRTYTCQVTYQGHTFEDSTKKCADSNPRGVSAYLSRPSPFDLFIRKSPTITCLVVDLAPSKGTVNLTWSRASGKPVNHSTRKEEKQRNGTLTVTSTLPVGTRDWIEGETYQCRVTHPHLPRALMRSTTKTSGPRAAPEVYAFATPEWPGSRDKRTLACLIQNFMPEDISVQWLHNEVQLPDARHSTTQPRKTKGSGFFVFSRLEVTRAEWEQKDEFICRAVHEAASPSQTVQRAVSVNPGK

These are yes or no findings as the source states them, for the method shown. Some entries that bind do so weakly or less than the wild type.

B1: sdAb A2 (VHH)
VHH: EVQLLESGGGLVQPGGSLRLSCAASGFRFGNYDMAWVRQAPGKRYEWVSSIDTGGDITHYADSVKGRFTISRDNAKNTLYLQMNSLRPEDTAEYWCATDEEYALGPNEFDYYGQGTLVTVS
Take B1: the binding entry is recorded as “binds”.

The values are drawn from patent US20250171562A1.
